These results are taken from article PMC4538844.

By UniProt entry, the sequences of proteins in these tests, tags left out. Where a name states a change or a piece, a line headed by the entry shows the natural chain unless it says otherwise.
UniProt Q9H6E5: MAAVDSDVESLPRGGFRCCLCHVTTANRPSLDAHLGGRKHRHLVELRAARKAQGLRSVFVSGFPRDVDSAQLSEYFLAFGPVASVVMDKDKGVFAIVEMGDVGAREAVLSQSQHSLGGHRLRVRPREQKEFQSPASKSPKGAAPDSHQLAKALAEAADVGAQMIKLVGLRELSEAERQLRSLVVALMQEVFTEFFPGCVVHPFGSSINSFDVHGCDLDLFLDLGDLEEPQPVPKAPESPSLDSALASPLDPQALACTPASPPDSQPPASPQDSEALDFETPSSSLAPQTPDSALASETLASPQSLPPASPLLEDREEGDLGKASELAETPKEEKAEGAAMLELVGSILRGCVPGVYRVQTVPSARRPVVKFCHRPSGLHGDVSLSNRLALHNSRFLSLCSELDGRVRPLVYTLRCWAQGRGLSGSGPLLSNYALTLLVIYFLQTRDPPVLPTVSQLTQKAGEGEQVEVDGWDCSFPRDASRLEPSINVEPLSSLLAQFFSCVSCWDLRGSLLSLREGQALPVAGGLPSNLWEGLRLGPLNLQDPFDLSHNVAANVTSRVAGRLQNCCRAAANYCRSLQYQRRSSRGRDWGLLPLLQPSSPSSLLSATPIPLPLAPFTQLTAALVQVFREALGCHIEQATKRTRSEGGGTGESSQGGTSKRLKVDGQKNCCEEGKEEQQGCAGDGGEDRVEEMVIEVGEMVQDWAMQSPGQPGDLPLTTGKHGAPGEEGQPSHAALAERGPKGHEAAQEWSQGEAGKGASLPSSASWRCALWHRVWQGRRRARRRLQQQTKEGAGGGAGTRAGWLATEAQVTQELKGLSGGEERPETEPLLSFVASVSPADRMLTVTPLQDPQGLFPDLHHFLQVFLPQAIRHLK
UniProt Q99755: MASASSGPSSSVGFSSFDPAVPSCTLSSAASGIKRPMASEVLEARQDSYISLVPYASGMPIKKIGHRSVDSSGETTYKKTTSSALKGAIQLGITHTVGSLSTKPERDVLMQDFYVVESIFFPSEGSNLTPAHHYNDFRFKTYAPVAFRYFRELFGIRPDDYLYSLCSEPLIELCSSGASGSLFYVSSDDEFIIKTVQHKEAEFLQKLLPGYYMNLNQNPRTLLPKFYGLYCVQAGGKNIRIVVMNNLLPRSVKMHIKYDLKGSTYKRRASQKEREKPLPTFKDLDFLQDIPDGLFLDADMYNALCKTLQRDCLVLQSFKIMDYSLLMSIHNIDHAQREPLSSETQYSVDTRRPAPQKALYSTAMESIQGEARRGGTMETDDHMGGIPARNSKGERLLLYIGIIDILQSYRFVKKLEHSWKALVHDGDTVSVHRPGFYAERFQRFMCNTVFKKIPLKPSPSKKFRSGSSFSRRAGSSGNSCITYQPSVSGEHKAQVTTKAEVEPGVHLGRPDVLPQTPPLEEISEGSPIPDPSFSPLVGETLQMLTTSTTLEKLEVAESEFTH

Results are given in words; binding and its absence hold for the method and conditions named. Binding seen in cells or lysates may run through a third protein. A result given as binding can be weak or reduced; the word gives no strength.

Assay [1] has as its target Star-PAP PRR deletion (human) (UniProt Q9H6E5). Description: co-IP; anti-FLAG IP from lysates of HEK 293 cells with transiently expressed FLAG-Star-PAP forms, blots for associated endogenous proteins; buffer A (100 mM KCl, 5 mM EDTA, 5% NP-40, RNase A); also after tBHQ or DMSO treatment, control siRNA.
Assay [2] deals with Star-PAP with cysteine mutations in the core ZF structure to serine (C18S, C21S) (human) (UniProt Q9H6E5). Described as above.

Turning to “PIPKIα (endogenous) (from UniProt Q99755 1-562) (enzyme)”, the binding result in assay [1] and in assay [2] was “binds” throughout.
